The supplement of paper PMC12819154, “High-throughput peptide-centric local stability assay extends protein–ligand identification to membrane proteins, tissues and bacteria” (Nature Structural & Molecular Biology, 2025)
This is one part of the list. Most entries show no effect beyond the scatter of the controls.

Sequences of proteins named here, by UniProt entry; tags and fusion partners are left off. A change or cut given only in a name is not applied to a line headed by its entry.
UniProt Q9BUZ4: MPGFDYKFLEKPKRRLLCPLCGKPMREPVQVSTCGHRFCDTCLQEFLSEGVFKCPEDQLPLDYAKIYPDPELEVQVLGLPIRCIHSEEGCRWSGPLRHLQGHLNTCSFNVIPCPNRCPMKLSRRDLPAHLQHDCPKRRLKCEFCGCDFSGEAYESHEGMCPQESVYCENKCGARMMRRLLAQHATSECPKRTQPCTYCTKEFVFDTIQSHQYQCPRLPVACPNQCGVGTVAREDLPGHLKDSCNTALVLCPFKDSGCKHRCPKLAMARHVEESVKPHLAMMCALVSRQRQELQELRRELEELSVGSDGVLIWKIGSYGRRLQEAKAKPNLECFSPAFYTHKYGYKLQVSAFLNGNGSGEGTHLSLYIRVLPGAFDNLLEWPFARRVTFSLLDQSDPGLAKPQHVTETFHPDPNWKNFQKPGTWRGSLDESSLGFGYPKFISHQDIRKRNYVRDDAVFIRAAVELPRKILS
UniProt Q9BX66: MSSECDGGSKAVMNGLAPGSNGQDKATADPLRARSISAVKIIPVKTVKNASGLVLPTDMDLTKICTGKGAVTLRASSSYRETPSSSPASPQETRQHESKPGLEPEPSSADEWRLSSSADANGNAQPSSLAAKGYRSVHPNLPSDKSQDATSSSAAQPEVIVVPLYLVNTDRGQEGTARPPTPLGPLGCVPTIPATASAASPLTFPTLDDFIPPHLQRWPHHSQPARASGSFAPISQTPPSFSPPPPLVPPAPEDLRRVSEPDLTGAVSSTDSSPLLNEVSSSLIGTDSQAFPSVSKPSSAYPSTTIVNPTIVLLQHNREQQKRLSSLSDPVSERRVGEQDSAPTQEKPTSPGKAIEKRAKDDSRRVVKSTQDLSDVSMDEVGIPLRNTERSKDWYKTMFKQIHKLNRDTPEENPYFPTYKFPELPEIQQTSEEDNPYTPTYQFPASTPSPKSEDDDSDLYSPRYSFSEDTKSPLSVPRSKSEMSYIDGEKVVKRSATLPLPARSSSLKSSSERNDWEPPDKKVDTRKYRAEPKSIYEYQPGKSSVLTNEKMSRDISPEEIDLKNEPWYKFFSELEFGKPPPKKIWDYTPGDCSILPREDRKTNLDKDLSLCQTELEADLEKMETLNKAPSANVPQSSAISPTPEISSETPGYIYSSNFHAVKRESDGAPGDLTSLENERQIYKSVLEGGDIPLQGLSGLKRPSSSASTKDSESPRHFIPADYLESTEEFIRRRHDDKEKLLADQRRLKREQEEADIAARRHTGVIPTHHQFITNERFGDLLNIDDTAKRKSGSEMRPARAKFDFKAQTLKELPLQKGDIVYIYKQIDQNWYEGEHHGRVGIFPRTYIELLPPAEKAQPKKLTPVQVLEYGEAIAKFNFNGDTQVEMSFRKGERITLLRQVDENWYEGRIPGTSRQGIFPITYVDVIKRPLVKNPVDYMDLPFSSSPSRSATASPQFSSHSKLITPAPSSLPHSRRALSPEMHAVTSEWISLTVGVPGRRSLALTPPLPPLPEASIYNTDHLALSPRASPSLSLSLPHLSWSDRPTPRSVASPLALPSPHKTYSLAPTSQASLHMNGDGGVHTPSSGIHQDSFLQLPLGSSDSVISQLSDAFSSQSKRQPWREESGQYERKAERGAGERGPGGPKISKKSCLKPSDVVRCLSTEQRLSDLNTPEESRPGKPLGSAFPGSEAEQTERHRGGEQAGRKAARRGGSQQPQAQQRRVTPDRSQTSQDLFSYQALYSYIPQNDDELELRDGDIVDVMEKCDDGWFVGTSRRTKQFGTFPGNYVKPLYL
UniProt Q9BYX2: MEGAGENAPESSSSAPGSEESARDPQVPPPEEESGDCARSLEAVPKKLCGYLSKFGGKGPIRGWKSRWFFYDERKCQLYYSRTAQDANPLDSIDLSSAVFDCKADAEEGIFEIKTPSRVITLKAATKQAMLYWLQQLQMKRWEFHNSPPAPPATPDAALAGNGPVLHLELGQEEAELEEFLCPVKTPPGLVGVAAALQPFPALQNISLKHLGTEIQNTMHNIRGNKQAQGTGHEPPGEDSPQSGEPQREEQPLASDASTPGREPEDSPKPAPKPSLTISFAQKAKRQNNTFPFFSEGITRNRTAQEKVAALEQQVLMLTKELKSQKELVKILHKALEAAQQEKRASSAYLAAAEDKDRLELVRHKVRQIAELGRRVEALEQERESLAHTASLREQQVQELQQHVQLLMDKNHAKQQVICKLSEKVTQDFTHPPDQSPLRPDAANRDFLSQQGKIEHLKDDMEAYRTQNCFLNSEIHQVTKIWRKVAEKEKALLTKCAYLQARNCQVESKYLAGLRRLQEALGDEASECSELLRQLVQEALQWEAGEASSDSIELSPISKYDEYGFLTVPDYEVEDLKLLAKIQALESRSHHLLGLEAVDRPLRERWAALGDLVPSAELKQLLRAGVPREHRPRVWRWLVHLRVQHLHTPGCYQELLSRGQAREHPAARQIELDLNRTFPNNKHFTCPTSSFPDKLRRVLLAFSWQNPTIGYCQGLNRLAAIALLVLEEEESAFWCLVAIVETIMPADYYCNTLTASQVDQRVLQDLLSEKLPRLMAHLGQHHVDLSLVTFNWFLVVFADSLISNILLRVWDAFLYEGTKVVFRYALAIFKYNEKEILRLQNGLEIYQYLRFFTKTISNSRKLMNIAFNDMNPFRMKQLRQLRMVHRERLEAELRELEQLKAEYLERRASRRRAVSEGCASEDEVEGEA
UniProt Q9C0B0: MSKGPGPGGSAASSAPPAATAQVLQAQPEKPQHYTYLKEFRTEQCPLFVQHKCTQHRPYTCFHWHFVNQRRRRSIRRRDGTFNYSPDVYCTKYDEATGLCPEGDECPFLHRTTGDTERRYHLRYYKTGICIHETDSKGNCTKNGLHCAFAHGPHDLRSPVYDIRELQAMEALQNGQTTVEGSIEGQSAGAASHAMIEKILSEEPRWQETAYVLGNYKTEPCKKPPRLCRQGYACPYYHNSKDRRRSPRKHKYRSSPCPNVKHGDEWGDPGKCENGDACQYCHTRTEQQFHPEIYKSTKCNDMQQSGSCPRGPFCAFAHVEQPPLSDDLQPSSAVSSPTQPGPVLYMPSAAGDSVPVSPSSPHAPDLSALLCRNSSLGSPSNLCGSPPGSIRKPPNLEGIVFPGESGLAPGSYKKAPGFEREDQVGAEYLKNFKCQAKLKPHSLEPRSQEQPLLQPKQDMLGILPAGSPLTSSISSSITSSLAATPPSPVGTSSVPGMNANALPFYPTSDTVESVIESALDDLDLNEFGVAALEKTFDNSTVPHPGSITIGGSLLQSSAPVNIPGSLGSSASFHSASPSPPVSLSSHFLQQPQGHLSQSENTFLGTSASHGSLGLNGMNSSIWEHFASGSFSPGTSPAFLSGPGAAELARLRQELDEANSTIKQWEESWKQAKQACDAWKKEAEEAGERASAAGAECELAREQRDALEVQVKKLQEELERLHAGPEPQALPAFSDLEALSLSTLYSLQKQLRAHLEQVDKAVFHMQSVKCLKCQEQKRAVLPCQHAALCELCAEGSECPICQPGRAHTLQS
UniProt Q9BWJ5: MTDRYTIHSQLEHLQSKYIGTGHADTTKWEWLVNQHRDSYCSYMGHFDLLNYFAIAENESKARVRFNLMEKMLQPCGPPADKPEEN
UniProt Q9GZZ1: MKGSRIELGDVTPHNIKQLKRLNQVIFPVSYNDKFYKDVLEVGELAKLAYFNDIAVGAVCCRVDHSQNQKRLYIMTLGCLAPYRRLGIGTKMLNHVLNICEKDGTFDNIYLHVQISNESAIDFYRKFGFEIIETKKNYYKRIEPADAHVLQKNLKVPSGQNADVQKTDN
UniProt Q9BUW7: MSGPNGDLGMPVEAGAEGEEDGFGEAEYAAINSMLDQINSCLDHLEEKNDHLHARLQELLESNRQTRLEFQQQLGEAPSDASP
UniProt Q9H0G5: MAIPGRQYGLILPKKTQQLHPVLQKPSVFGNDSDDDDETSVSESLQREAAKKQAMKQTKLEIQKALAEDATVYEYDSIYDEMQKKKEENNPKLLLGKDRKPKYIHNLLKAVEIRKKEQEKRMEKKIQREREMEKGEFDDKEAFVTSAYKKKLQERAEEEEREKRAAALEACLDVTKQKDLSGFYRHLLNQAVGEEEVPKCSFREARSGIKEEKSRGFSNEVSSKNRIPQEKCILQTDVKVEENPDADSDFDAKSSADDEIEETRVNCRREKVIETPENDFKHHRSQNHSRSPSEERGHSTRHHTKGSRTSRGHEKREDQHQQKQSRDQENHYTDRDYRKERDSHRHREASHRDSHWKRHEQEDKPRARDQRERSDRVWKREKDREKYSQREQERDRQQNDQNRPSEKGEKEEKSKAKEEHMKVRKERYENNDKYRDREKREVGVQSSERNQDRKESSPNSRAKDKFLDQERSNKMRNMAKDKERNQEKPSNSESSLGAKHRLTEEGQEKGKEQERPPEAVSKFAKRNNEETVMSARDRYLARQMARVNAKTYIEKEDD
UniProt Q9GZN2: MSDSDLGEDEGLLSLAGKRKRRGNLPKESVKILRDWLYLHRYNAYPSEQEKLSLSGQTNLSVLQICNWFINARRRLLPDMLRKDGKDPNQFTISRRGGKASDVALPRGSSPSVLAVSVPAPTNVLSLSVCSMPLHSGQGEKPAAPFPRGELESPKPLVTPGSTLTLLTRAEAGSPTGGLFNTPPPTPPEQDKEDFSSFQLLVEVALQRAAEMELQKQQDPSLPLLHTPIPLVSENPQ
UniProt Q9BZE9, whole entry: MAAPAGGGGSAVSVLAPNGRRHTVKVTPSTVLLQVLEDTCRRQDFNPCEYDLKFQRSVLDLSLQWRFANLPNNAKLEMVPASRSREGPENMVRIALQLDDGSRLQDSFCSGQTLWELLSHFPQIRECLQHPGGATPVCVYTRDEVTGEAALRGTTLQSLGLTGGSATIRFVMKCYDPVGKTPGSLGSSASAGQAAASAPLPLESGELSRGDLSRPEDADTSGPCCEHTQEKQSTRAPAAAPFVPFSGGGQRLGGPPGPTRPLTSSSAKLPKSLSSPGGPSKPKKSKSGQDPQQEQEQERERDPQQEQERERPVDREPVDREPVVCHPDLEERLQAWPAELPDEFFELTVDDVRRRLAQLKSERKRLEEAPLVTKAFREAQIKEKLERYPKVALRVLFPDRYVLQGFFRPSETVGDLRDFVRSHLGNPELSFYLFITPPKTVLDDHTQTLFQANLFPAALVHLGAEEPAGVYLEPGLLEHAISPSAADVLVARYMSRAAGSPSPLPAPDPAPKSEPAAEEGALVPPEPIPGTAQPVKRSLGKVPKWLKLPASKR
UniProt Q9H098: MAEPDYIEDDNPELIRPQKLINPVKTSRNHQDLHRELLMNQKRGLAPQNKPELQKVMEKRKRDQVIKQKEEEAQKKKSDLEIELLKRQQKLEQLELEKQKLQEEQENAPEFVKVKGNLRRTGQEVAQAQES
UniProt Q9C086, whole entry: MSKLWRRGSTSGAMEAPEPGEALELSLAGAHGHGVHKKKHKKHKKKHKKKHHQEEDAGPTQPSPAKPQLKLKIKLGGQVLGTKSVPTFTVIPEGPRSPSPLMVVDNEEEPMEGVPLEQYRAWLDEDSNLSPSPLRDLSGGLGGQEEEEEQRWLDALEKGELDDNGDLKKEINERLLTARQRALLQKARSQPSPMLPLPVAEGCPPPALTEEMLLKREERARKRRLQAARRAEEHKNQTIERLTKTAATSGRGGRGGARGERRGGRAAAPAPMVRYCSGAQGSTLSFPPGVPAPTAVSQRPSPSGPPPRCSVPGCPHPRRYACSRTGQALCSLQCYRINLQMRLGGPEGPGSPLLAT
UniProt Q9H0K1: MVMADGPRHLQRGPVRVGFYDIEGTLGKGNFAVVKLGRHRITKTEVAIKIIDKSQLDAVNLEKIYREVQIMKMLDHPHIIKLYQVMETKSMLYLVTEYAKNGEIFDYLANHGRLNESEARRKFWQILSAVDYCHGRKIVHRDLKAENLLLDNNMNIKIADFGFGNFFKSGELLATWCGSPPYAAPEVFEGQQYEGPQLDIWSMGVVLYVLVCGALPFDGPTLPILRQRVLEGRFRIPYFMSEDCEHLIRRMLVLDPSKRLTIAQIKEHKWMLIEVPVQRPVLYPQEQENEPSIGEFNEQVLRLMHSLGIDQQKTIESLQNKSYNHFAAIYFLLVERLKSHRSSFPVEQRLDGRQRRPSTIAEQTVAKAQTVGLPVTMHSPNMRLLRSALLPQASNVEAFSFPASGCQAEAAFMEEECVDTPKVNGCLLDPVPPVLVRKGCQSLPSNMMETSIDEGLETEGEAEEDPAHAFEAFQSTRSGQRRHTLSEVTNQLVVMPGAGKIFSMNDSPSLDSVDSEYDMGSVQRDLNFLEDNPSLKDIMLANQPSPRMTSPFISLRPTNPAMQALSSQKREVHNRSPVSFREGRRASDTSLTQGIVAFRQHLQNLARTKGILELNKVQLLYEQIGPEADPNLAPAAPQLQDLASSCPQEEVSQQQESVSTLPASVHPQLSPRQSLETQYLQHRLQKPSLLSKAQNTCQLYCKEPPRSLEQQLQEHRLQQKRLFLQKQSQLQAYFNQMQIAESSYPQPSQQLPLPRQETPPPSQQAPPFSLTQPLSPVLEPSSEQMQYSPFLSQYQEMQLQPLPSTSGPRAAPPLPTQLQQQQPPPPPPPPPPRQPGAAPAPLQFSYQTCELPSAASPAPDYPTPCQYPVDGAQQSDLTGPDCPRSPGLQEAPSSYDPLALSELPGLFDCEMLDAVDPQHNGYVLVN

Compound: Cc1nc(Nc2ncc(C(=O)Nc3c(C)cccc3Cl)s2)cc(N2CCN(CCO)CC2)n1 [dasatinib]
Assay: log2 fold change of tryptic peptide abundance, ligand vs vehicle (limited proteolysis) (log2 ratio); higher = more trypsin-susceptible (destabilized)
Details: ligand concentration: 5 uM; sample: K562 cleared lysate

Target	log2 fold change
TRAF4 (peptide sequence: HVEESVKPHLAMMCALVSR, peptide start residue: 269) (UniProt Q9BUZ4)	0.111
SORBS1 (peptide sequence: SVLEGGDIPLQGLSGLKRPSSSASTK, peptide start residue: 684) (UniProt Q9BX66)	-0.172
MRPL20 (peptide sequence: ITAASQEHGLK, peptide start residue: 72) (UniProt Q9BYC9)	-0.777
FTO (peptide sequence: ILIGNPGCTYK, peptide start residue: 97) (UniProt Q9C0B1)	-0.373
TBC1D2 (peptide sequence: ADAEEGIFEIK, peptide start residue: 104) (UniProt Q9BYX2)	0.904
UNK (peptide sequence: DALEVQVK, peptide start residue: 704) (UniProt Q9C0B0)	-0.236
SF3B5 (peptide sequence: YIGTGHADTTK, peptide start residue: 18) (UniProt Q9BWJ5)	0.242
NUCKS1 (peptide sequence: TPSPKEEDEEPESPPEK, peptide start residue: 202) (UniProt Q9H1E3)	0.23
PPP1R12C (peptide sequence: DGDGWTPLHAAAHWGVEDACR, peptide start residue: 257) (UniProt Q9BZL4)	0.667
UniProt Q9GZZ1 (peptide sequence: FGFEIIETK, peptide start residue: 127)	0.368
C9orf16 (peptide sequence: NDHLHAR, peptide start residue: 49) (UniProt Q9BUW7)	-0.25
ROGDI (peptide sequence: NFRPAGGAVLHSPGAMFEWGSQR, peptide start residue: 216) (UniProt Q9GZN7)	0.313
UniProt Q9H0G5 (peptide sequence: EKVIETPENDFKHHR, peptide start residue: 270)	-0.811
NXF2 (peptide sequence: DVHKDQQLR, peptide start residue: 69) (UniProt Q9GZY0)	0.221
CLPB (peptide sequence: LEIIDKDSK, peptide start residue: 680) (UniProt Q9H078)	-0.659
UniProt Q9BUR4 (peptide sequence: NADSELMPPPPERGDPPR, peptide start residue: 35)	-0.141
UniProt Q9GZN2 (peptide sequence: YNAYPSEQEK, peptide start residue: 188)	0.0537
ASPSCR1 (peptide sequence: ECLQHPGGATPVCVYTR, peptide start residue: 126) (UniProt Q9BZE9)	0.459
UniProt Q9BVL4 (peptide sequence: VMHANNPK, peptide start residue: 586)	-0.31
FAM107B (peptide sequence: NHQDLHR, peptide start residue: 29) (UniProt Q9H098)	-0.465
DPH1 (peptide sequence: GKVQEGSARPPSAVACEDCSCR, peptide start residue: 413) (UniProt Q9BZG8)	0.147
THUMPD3 (peptide sequence: KINQNSSK, peptide start residue: 148) (UniProt Q9BV44)	0.225
RPAP1 (peptide sequence: SIFAQEIAAR, peptide start residue: 150) (UniProt Q9BWH6)	-0.0908
FRMD8 (peptide sequence: VQLGPYQPGRPAACDLR, peptide start residue: 178) (UniProt Q9BZ67)	-0.133
INO80B (peptide sequence: AAAPAPMVR, peptide start residue: 266) (UniProt Q9C086)	-0.203
HTATIP2 (peptide sequence: DKQMELLENK, peptide start residue: 219) (UniProt Q9BUP3)	-0.115
UniProt Q9H0K1 (peptide sequence: HTLSEVTNQLVVMPGAGK, peptide start residue: 483)	0.257
UniProt Q9BXP5 (peptide sequence: MLDAAVIK, peptide start residue: 249)	-0.194

Given in CSV form: entries from further up
Target,log2 fold change
"MRPL20 (peptide sequence: ITAASQEHGLK, peptide start residue: 72) (UniProt Q9BYC9)",-0.777
"NXF2 (peptide sequence: DVHKDQQLR, peptide start residue: 69) (UniProt Q9GZY0)",0.221
